Data published in paper PMC5029660, “The DEK oncogene activates VEGF expression and promotes tumor angiogenesis and growth in HIF-1α-dependent and -independent manners”.

Assays:
Assay in all cases: EMSA
FLAG-DEK(188-375) = biological target: T1, FLAG-DEK(188-375) (UniProt P35659); conditions: LightShift Chemiluminescent EMSA Kit (Pierce), per manufacturer; pH and temperature not stated; protein in a lysate after overexpression; residues 188-375; protein details: N-terminal FLAG; label: biotin
T1 sequence (looked up): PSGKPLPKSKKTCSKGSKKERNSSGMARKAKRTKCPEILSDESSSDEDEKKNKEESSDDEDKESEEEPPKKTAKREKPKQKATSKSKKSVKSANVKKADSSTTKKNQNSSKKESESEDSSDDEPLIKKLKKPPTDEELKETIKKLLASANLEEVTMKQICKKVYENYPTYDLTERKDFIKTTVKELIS

FLAG-DEK(1-187) = biological target: T2, FLAG-DEK(1-187) (UniProt P35659); conditions: LightShift Chemiluminescent EMSA Kit (Pierce), per manufacturer; pH and temperature not stated; protein in a lysate after overexpression; residues 1-187; protein details: N-terminal FLAG; label: biotin
T2 sequence (looked up): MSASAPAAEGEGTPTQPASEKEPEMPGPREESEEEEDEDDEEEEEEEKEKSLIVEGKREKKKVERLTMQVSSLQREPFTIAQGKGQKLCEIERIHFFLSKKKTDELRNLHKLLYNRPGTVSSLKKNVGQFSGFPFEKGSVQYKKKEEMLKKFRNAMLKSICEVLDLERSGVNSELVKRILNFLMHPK

FLAG-DEK = biological target: T3, FLAG-DEK (UniProt P35659); conditions: LightShift Chemiluminescent EMSA Kit (Pierce), per manufacturer; pH and temperature not stated; protein in a lysate after overexpression; protein details: N-terminal FLAG; label: biotin
T3 sequence (looked up, limits assumed): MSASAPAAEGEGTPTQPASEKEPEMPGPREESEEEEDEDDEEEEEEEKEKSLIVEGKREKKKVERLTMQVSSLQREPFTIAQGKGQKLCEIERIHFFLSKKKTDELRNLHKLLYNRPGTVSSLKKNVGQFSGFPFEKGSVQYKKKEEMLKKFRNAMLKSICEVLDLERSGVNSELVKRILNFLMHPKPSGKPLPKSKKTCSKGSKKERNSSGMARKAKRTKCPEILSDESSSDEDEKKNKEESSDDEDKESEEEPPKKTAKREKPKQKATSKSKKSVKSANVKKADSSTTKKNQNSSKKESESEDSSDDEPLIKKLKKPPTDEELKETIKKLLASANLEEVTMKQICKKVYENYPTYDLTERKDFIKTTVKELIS

Which results are given for “GGGTTGAGGGCGTTGGAGCGGGGAGAAGGCCAGGGGT (double strand) [DRE1]”?
binding result (FLAG-DEK(188-375)): binds; binding result (FLAG-DEK(1-187)): no binding; binding result (FLAG-DEK): binds

Where cells or extracts were used, other partners may take part. For part of these data: No signal at the amounts used counts as a negative. Protein sequences can lack the tags named with them. For part of these data: Construct, isoform or probe ends are uncertain for at least one entry. For part of these data: At least one verdict rests on a figure or table, not on a statement of the authors.
